Values of other authors, collected in US20100172981A1, “Ibuprofen-Effervescent Preparation Having a High Dissolution Rate and Method for the Production thereof” (Losan Pharma GMBH, priority 2006, published 2010).

Conditions: general statement in the background section

In the case of CC(C)Cc1ccc(C(C)C(=O)O)cc1 (stereo not shown) [ibuprofen, 2-(4-isobutylphenyl) propionic acid], the “solubility / dissolution in water (words, background)” value is listed as “virtually insoluble in water”.
